Assay results reported in paper doi:10.1101/2025.03.19.644084.
These are yes or no findings as the source states them, for the method shown. In cells and extracts the contact can be indirect. Some entries that bind do so weakly or less than the wild type. Sequences can lack the tags named with a protein.

Chains of the proteins cited; added tags and fusions are not shown. Lines headed by an entry give the natural chain unless they say otherwise; changes in a name come on top.
UniProt P62258, whole entry: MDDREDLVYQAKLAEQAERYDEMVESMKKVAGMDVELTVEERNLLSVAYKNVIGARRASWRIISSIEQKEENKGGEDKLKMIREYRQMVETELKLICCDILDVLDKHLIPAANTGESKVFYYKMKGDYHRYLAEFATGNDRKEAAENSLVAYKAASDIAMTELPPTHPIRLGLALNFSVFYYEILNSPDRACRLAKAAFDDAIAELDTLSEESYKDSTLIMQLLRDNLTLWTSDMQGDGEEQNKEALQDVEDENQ

Legend:
Test in all cases: co-IP
[1] = biological target: HA-14-3-3ε^AAA (E251-253A) (UniProt P62258)
HA-14-3-3ε^K50/215R = HA-14-3-3ε^K50/215R (UniProt P62258)
HA-14-3-3ε^WT = HA-14-3-3ε^WT (UniProt P62258)

Measured: binding

B1: Flag-RIG-I (protein, UniProt O95786 1-925)
chain: MTTEQRRSLQAFQDYIRKTLDPTYILSYMAPWFREEEVQYIQAEKNNKGPMEAATLFLKFLLELQEEGWFRGFLDALDHAGYSGLYEAIESWDFKKIEKLEEYRLLLKRLQPEFKTRIIPTDIISDLSECLINQECEEILQICSTKGMMAGAEKLVECLLRSDKENWPKTLKLALEKERNKFSELWIVEKGIKDVETEDLEDKMETSDIQIFYQEDPECQNLSENSCPPSEVSDTNLYSPFKPRNYQLELALPAMKGKNTIICAPTGCGKTFVSLLICEHHLKKFPQGQKGKVVFFANQIPVYEQQKSVFSKYFERHGYRVTGISGATAENVPVEQIVENNDIIILTPQILVNNLKKGTIPSLSIFTLMIFDECHNTSKQHPYNMIMFNYLDQKLGGSSGPLPQVIGLTASVGVGDAKNTDEALDYICKLCASLDASVIATVKHNLEELEQVVYKPQKFFRKVESRISDKFKYIIAQLMRDTESLAKRICKDLENLSQIQNREFGTQKYEQWIVTVQKACMVFQMPDKDEESRICKALFLYTSHLRKYNDALIISEHARMKDALDYLKDFFSNVRAAGFDEIEQDLTQRFEEKLQELESVSRDPSNENPKLEDLCFILQEEYHLNPETITILFVKTRALVDALKNWIEGNPKLSFLKPGILTGRGKTNQNTGMTLPAQKCILDAFKASGDHNILIATSVADEGIDIAQCNLVILYEYVGNVIKMIQTRGRGRARGSKCFLLTSNAGVIEKEQINMYKEKMMNDSILRLQTWDEAVFREKILHIQTHEKFIRDSQEKPKPVPDKENKKLLCRKCKALACYTADVRVIEECHYTVLGDAFKECFVSRPHPKPKQFSSFEKRAKIFCARQNCSHDWGIHVKYKTFEIPVIKIESFVVEDIATGVQTLYSKWKDFHFEKIPFDPAEMSK
binds: [1] | HA-14-3-3ε^K50/215R | HA-14-3-3ε^WT
